# Results taken from paper PMC11971272.
# By UniProt entry, the sequences of proteins in these tests, tags left out.
# UniProt Q96J02: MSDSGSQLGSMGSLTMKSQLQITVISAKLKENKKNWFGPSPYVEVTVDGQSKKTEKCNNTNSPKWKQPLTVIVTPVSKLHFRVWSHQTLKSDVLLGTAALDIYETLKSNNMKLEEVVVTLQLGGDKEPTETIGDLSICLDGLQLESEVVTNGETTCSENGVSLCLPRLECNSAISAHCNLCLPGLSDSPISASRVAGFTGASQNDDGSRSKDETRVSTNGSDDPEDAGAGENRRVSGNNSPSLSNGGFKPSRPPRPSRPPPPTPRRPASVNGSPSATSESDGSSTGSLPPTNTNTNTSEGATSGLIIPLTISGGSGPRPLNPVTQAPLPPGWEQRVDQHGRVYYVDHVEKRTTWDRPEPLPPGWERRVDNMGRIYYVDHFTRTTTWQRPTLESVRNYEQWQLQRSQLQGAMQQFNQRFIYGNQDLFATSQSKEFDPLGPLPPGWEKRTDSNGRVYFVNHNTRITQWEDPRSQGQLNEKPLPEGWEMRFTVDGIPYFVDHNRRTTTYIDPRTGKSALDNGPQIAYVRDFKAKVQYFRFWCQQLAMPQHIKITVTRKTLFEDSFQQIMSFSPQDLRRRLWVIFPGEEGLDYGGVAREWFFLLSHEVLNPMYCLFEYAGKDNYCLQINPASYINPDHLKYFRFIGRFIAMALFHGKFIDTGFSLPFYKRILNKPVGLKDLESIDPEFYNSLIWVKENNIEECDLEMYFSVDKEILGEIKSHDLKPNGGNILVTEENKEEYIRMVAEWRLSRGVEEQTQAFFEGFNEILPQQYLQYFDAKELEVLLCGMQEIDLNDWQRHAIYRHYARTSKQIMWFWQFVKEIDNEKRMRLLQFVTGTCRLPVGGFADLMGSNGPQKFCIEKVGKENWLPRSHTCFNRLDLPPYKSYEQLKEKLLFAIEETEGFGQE
# UniProt O43353: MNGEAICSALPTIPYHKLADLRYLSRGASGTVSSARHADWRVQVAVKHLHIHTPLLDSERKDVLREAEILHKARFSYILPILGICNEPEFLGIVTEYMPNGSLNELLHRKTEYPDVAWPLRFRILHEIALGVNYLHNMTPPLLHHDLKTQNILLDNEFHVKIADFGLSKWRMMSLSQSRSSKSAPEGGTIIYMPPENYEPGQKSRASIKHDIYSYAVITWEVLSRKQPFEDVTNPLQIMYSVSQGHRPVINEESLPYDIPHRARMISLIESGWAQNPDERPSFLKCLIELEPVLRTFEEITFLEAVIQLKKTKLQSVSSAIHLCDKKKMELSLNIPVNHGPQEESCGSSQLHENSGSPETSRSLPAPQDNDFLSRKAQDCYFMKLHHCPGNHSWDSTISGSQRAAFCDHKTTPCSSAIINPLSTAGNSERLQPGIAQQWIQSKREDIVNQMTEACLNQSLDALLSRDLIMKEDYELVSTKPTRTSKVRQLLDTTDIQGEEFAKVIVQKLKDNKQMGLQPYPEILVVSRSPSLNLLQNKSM
# No constants are given. Whether binding was seen depends on the method and setting. In cells and extracts the contact can be indirect. Some entries that bind do so weakly or less than the wild type.
# Tests used:
# [1] = biological target: ITCH (co-IP with YAP in control and RIPK2-KO HCT116 cells; construct not stated) (UniProt Q96J02); assay: co-IP; ITCH and YAP in HCT116 cells before and after RIPK2 knockout (CRISPR/Cas9)
# [2] = biological target: Flag-ITCH (E3 ubiquitin ligase ITCH) (UniProt Q96J02); assay: co-IP; HCT116 cells co-transfected with Flag-ITCH, Myc-RIPK2 and EGFP-YAP plasmids; unstimulated, or stimulated with MDP for 0, 1 and 2 h; equal amounts of protein loaded
binding [1],binding [2],Substance
binds,–,YAP (co-IPs in SW480 and HCT116 cells; construct not stated) (from UniProt P46937 1-504)
–,binds,EGFP-YAP (from UniProt P46937 1-504)
–,binds,Myc-RIPK2 (receptor-interacting protein kinase 2) (from UniProt O43353 1-540) (enzyme)
